According to PubChem BioAssay AID540256 (National Center for Advancing Translational Sciences (NCATS), 2011):
Among all 300,000 compounds or so, about 3,700 (1.2%) were called active. This list was built around the results that the source calls inconclusive (neither active nor inactive); the mix of calls is not that of the screen. Calls follow the shape of the full dose curve; tested in HEK293 cells. Potencies beside an inconclusive call are fits to weak or partial responses and may not hold up.

test: qHTS for Inhibitors of binding or entry into cells for Lassa Virus; conditions: Lassa virus pseudotype entry inhibition, cell reporter; activity change, negative = inhibition: at 37.9 µM (top of the series) unless noted; also: nearly all actives have a fitted effect of over 50% in size
% is scaled to controls: 0 for no effect and ±100 for the full control effect; potency is read from the fitted curve at half-maximal effect.

Compound	Potency	activity change, negative = inhibition
O=C(NCc1ccc2c(c1)OCO2)c1ccncc1	inconclusive: 29.1 µM [inhibitor, single point]	
O=C(Nc1cccc(NC(=O)c2cccs2)c1)c1ccc(F)cc1		inactive: -23% [at 46.1 µM]
COc1ccc2c(c1)CCc1c(C(=O)Nc3c(C)nn(Cc4ccc(Cl)cc4)c3C)noc1-2		inactive: -9.55% [at 46.1 µM]
COc1ccc(-n2nc(C(=O)NCC(=O)N3CCN(c4ccccc4)CC3)c3ccccc3c2=O)cc1OC	inconclusive: 10 µM [inhibitor, partial curve, poor fit]	
O=C(C(Cl)Cl)N1c2ccccc2OCC1c1ccccc1 (stereo unspecified)		inactive: -0.876%
COc1cccc(CNC(=O)CN2C(=O)N(c3c(C)cccc3C)S(=O)(=O)c3ccccc32)c1OC	inconclusive: 8.91 µM [inhibitor, partial curve, poor fit]	
Cc1ccc(C)n1-c1cccc(S(=O)(=O)N2CCOCC2)c1	inconclusive: 35.5 µM [inhibitor, single point]	
COc1ccc(C2c3c(oc4ccc(Cl)cc4c3=O)C(=O)N2CCCN(C)C)cc1OC (stereo unspecified)	inconclusive: 20 µM [activator, single point]	
Cn1nc(C(=O)Nc2cc(Cl)ccc2N2CCCC2)c2ccccc2c1=O	inconclusive: 35.5 µM [inhibitor, single point]	
O=C(Nc1ccc(S(=O)(=O)N2CCOCC2)cc1)c1cccs1	inconclusive: 10 µM [inhibitor, partial curve, poor fit]	
C/C(CC(=O)Nc1ccc2ccccc2c1)=N\NC(=O)c1ccc(O)c(O)c1	inconclusive: 10 µM [inhibitor, partial curve]	
CC(=O)C(/C=N/c1cc(-c2ccc(C)cc2)nn1-c1ccccc1)=C(\C)O	inconclusive: 11.2 µM [activator, partial curve]	
OCC(O)C1OC(c2ccco2)OC(CO)C1O (stereo unspecified)		inactive: 2.6% [at 46.1 µM]
Cc1nnc(SCC(=O)N2c3ccccc3C(C)(c3ccccc3)CC2(C)C)s1 (stereo unspecified)	inconclusive: 11.6 µM [inhibitor, partial curve]	
Cc1ccc(C(=O)OCc2ccc3c(c2)OCO3)cc1S(=O)(=O)N1CCCCC1	inconclusive: 18.3 µM [inhibitor, partial curve, poor fit]	
O=C(NCc1ccccc1)C1CCN(S(=O)(=O)c2ccc(N3CCCC3=O)cc2)CC1	inconclusive: 14.1 µM [inhibitor, single point]	
CSc1nc(N)n2nc(-c3ccccc3)cc2n1		inactive: -10.6% [at 46.1 µM]
Cc1nc(SCc2ccccc2)c2oc3ccccc3c2n1	inconclusive: 11.2 µM [inhibitor, partial curve, poor fit]	
Cc1cccc(NC(=S)N2CCN(c3ccccc3)CC2)c1	inconclusive: 0.562 µM [inhibitor, full curve, poor fit]	
CCCc1nn(C)c(C(=O)Nc2ccc(Cl)cc2)c1Cl	inconclusive: 0.178 µM [inhibitor, full curve, poor fit]	
CCCCn1c(N)c(N(CCOC)C(=O)c2ccc(-c3cccc(C(F)(F)F)c3)o2)c(=O)[nH]c1=O	inconclusive: 8.91 µM [inhibitor, partial curve, poor fit]	
CCN1C(=O)/C(=C\C=C2/C=CC=CN2CC)SC1=S		inactive: -18.9%

Part of the list above in order of number of heavy atoms, high to low:
Compound	Potency	activity change, negative = inhibition
O=C(Nc1ccc(S(=O)(=O)N2CCOCC2)cc1)c1cccs1	inconclusive: 10 µM [inhibitor, partial curve, poor fit]	
Cc1cccc(NC(=S)N2CCN(c3ccccc3)CC2)c1	inconclusive: 0.562 µM [inhibitor, full curve, poor fit]	
CCCc1nn(C)c(C(=O)Nc2ccc(Cl)cc2)c1Cl	inconclusive: 0.178 µM [inhibitor, full curve, poor fit]	

As entered above:
Value of COc1ccc(-n2nc(C(=O)NCC(=O)N3CCN(c4ccccc4)CC3)c3ccccc3c2=O)cc1OC under Potency: inconclusive: 10 µM [inhibitor, partial curve, poor fit]
Value of O=C(NCc1ccccc1)C1CCN(S(=O)(=O)c2ccc(N3CCCC3=O)cc2)CC1 under Potency: inconclusive: 14.1 µM [inhibitor, single point]

Continuation:

Compound	Potency	activity change, negative = inhibition
CC(=O)c1c(NCc2ccccc2)nc(=O)n(-c2ccccc2)c1C	inconclusive: 20.6 µM [activator, single point]	
CC(=O)N1CCOc2ccc(S(=O)(=O)NCc3ccc(Cl)cc3)cc21	inconclusive: 10 µM [inhibitor, partial curve, poor fit]	
Cc1ccc(NC2CCCN(C(=O)c3ccc(C)c(N4CCNC4=O)c3)C2)cc1C (stereo unspecified)		inactive: 0.79%
COc1cc(/C=N/N2CCN(c3ccccc3OC)CC2)ccc1OC(C)=O	inconclusive: 20 µM [inhibitor, single point]	
CC(C)[C@H](NC(=O)OCc1ccccc1)C(=O)OCc1ccccc1	inconclusive: 35.5 µM [inhibitor, single point]	
CCc1ccc(-c2nc(SCC(=O)NCC3CCCO3)c(-c3ccc(F)cc3)[nH]2)cc1 (stereo unspecified)		inactive: -14.2% [at 46.1 µM]
Cc1cccc(CCNC(=O)CNS(=O)(=O)c2ccc3nc(C)sc3c2)c1	inconclusive: 22.4 µM [inhibitor, single point]	
Cc1nn(C)c2cc(N(C)c3ccnc(Nc4cccc(S(N)(=O)=O)c4)n3)ccc12	inconclusive: 22.3 µM [inhibitor, partial curve, poor fit]	
N#Cc1cc(-c2ccccc2)c[nH]c1=O	inconclusive: 6.51 µM [activator, partial curve, poor fit]	
COCC(C)NC(=O)c1cccc([N+](=O)[O-])c1 (stereo unspecified)	inconclusive: 0.164 µM [inhibitor, partial curve, poor fit]	
Cn1c(/C=N/NC(=O)c2ccccc2Br)nc2ccccc21	inconclusive: 20.6 µM [inhibitor, single point]	
CCCCN(CCCC)CCCN1CC(=O)N2[C@@H](Cc3c([nH]c4ccccc34)C2(C)C)C1=O		inactive: -0.526% [at 46.1 µM]
CN(C)CCNC(C(=O)Nc1cccc(C(F)(F)F)c1)c1ccccc1 (stereo unspecified)	inconclusive: 35.5 µM [inhibitor, single point]	
CCCn1c(=O)c(C(=O)NCCc2ccccc2)c(O)c2ccccc21		inactive: 10.9% [at 46.1 µM]
CC(=O)c1ccc(Sc2ccc(C(C)=O)cc2)cc1	inconclusive: 18.4 µM [inhibitor, partial curve, poor fit]	
Cc1ccc(NC(=O)N2CCN3CCCCC3C2)cc1F (stereo unspecified)	inconclusive: 15.8 µM [activator, single point]	
Cc1ccsc1CN(C(=O)c1ccc(Br)cc1)C1CCS(=O)(=O)C1 (stereo unspecified)	inconclusive: 5.62 µM [inhibitor, single point]	
CC(=O)Nc1cccc(NC(=O)c2ccc3c(c2)CCN3S(=O)(=O)c2ccccc2)c1		inactive: -18.8% [at 46.1 µM]
Cc1ccc(-c2noc(CNCCCN(C)C)n2)cc1	inconclusive: 12.6 µM [activator, partial curve, poor fit]	
COCCN(C(=O)c1snc(C(N)=O)c1N)C(C(=O)NC1CCCC1)c1cc(OC)c(OC)c(OC)c1 (stereo unspecified)		inactive: -1.84%
CCCSc1ccc(C(=O)Nc2ccc(Cl)cc2)cn1	inconclusive: 35.5 µM [inhibitor, single point]	
COc1ccccc1CCNC(=O)C(=O)NCC(c1cccs1)S(=O)(=O)c1ccc(F)cc1 (stereo unspecified)	inconclusive: 11.2 µM [inhibitor, partial curve, poor fit]	

Compound	Potency	activity change, negative = inhibition
C=CCc1ccccc1OCCn1c(C2CC(=O)N(Cc3ccc(F)cc3)C2)nc2ccccc21 (stereo unspecified)		inactive: 15.6% [at 46.1 µM]
C/C(=N\NC(=O)C(C)Sc1ccccc1)C(C)(C)C (stereo unspecified)		inactive: 10.8%
CC(OC(=O)c1ccc(OCC2CCCO2)cc1)C(=O)N(C)Cc1ccccc1 (stereo unspecified)	inconclusive: 2.51 µM [inhibitor, partial curve]	
CN(C)c1ccc(NC(=O)CSc2nc3ccccc3c(=O)n2C2CCCCC2)cc1	inconclusive: 6.51 µM [inhibitor, partial curve, poor fit]	
COc1ccc(S(=O)(=O)N2CCC(O)(c3ccc(Cl)cc3)CC2)cc1OC	inconclusive: 3.16 µM [inhibitor, partial curve, poor fit]	
O=C(NCC(c1ccco1)N1CCc2ccccc21)C(=O)Nc1ccc(F)cc1F (stereo unspecified)	inconclusive: 17.8 µM [inhibitor, single point]	
Cc1ccc(/C=C/C(=O)OCC(=O)NCc2cccs2)o1		inactive: -25.7% [at 46.1 µM]
CC(=O)N1CCN(CC(=O)Nc2ccccc2Sc2ccccc2)CC1	active: 10 µM	
CC(=O)Nc1ccc(NC(=O)CN(c2cccc(C(C)=O)c2)S(C)(=O)=O)cc1		inactive: 14.3%
COc1ccc(-c2c3c(nc4sc(C(=O)Nc5ccccc5F)c(N)c24)CC(C)(C)CC3=O)cc1		inactive: 16.4% [at 46.1 µM]
CCCC/C(O)=C1\C(=O)CC(C)(C)CC1=Nc1ccc(OC)cc1	inconclusive: 1.16 µM [inhibitor, full curve, poor fit]	
C/C(=N\OCC(=O)NC12CC3CC(CC(C3)C1)C2)c1cc2ccccc2o1	inconclusive: 35.5 µM [inhibitor, partial curve, poor fit]	
O=C(c1ccco1)N1CCN(c2nc(C(F)(F)F)nc3c2nnn3Cc2ccccc2)CC1	inconclusive: 32.6 µM [inhibitor, single point]	
CCc1ccc(C(=O)OCC(=O)NC2CCCC2)cc1	inconclusive: 0.562 µM [inhibitor, partial curve, poor fit]	
CN1CCN(C(=O)C2CCC(=O)N(CCc3cccc(F)c3)C2)CC1 (stereo unspecified)		inactive: 11.5%
COc1cc(C(=O)OCCCN2CCCN(CCCOC(=O)c3cc(OC)c(OC)c(OC)c3)CC2)cc(OC)c1OC	inconclusive: 16.4 µM [inhibitor, partial curve]	
Nc1ccc(-c2nc3ncccc3o2)c(Cl)c1	inconclusive: 35.5 µM [inhibitor, single point]	
COc1cc(NC(=O)C/C(C)=N/NC(=O)C(=O)NCCO)c(OC)cc1Cl	inconclusive: 5.62 µM [inhibitor, single point]	
CC(/C=C/c1ccccc1)=N\NC(=O)C1CC1(C)c1ccccc1 (stereo unspecified)	active: 1.03 µM	
COCCNC(=O)c1cc2c(s1)-c1ccc(Cl)cc1SC2	inconclusive: 11.2 µM [inhibitor, single point]	
COc1cc(/C=C/c2ccc(/C=C/c3cc(OC)c(OC)c(OC)c3)cc2)cc(OC)c1OC	active: 11.2 µM	
COc1cccc(C(=O)Nc2ccc(C(=O)c3ccncc3)cc2)c1	inconclusive: 35.5 µM [inhibitor, partial curve, poor fit]	
